This passage reports binding signal (log2 relative supershift) results from publication PMC12370185.

Some of the results follow.

In the test the test system is c-MYC + MAX + histone octamer. The test can be described thus: EMSA with sequencing. Particulars: 10 mM Tris-Cl pH 7.5, 50 mM NaCl, 1 mM DTT, 0.25 mg/ml BSA, 2 mM MgCl2, 0.025% Nonidet P-40, 5% glycerol; 28 nM nucleosome library; 10 min on ice then 30 min …; high values mean tight binding; double strand, one strand shown. Background: A gel shift assay detects complexes by their altered migration in electrophoresis.
Take “GATGGACCCTATACGCGGCTTTGGTTTTCCATATTTATATCCTATATACTTGTGTGTACAATGCAAGCTTTGTTATGCTGTATCTGGCCAGTGTTTTCTTCCCTTTACAACAGGCAGTAACTGTAGCTGTGCATAATGTACCTGACAGTGAAGGTGGCTGGCTATTGAAGTCTCTTGTTGGGCAACGTTTGTGCTGGCACAGCCATGGTATGCCAGTCGGATAGTGTTCC”: the binding signal (log2 relative supershift) was 0.0572. In the case of “GATGGACCCTATACGCGGCTATAGAGATTGAATGGAAGAGTGCCTTGGAAAGTGTCTCTACCAAATGGCACCTGAGCTGAATGTTGTAGAATAAGAGCTGTTCATCAGGATGACAATGGGAGGGGAGGAGGCTGAGATAAAGGCATTTCAAATGGAGGGAATAGCAAAGATGTGGAAGCATGGCCTGTCATTAAACTGCAAGTAGTTCAGTGCCAGTCGGATAGTGTTCC”, the binding signal (log2 relative supershift) was found to be 0.0618. The value for “GATGGACCCTATACGCGGCGAACAATCAAGAGCTGTTTCTCTTTGCTCTTCCTCATAGCCATGCTGGAGGCATTCATAGGCACATCCTGGTGGAGGGTGATTTGGGTGGGTAGGAATGGACTTGTTCTGTTGACATTGGCATGAAAGGACTAGAGTGCATCCATCATTCTATGGGTATTTAATGGGCCCTATGTTGAGCTGTGTTCTGGTTGCCAGTCGGATAGTGTTCC” was 0.29.

“GATGGACCCTATACGCGGCTTAATTCCTCCACTCTTGCAAGTGTACTTAATAGCTCACACAAAGCAAGAAGCATAACCGCAAGAACACAGAGAAGCCTGCCCTGCCAGGTTTATTGTGTGCCTGGCTGCGTGATTATTGTTTTGCATATAACCTCACAGAGGAAATCCTGTGTCAGGCACTTCCAGAGCCTCATGTAGTTTTACTGGATGTGCCAGTCGGATAGTGTTCC”: the binding signal (log2 relative supershift) was 0.103. The value for “GATGGACCCTATACGCGGCGAATGGTGGCTGGACTCTATTAGGCTCCAAACTCTCATGTGCCTGAGCGCCAGCTCCCTCTCTAAACATAAGCATCTCGGGGCTGGAGGTGGGGGGAAATTTTCTGATGCATCTTTCTTTGCCATGTAATTCCTACCCCAGGATCATGCTCACATAAGTGTTCTTGGAATATGTGAGTAAGTGACTGAAAATGCCAGTCGGATAGTGTTCC” was 0.178; that for “GATGGACCCTATACGCGGCTCATGGAATCCTTCATTAGCTCCATTTCTTAGCAGAAAAGGTTGTGCAGCATATGCCATATCATACTGGATATGCCCCATCTCATGATGAGCTGTCAGGAAGTCGTCCATTGTCACCTTTGTGCACATAAGGATCCTGCATGAAAATGGACAAGATGAAAATGAATCTCACTGACTTTCATTTAACCATTATGCCAGTCGGATAGTGTTCC” was 0.114.
